Laboratory results published in PubChem BioAssay AID1508600 (Functional Genomics Laboratory (NCATS/FGL), 2020).
Hit rate of the full screen: of about 53,000 sequences, about 3,700 (7%) were called active.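 How the source made its calls: active means gene knockdowns whose robust z-score for IL-1 alpha signal is at least 2 or at most -2, so actives lie on both sides; inactive means the rest.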 Some of the results follow.

experiment: Components of the Cytosolic LPS Sensing Pathway: Gene Identification via Genome-wide siRNA Screen; conditions: RAW264.7 macrophages, IL-1a HTRF, actives lie on both sides, screened at 100 nM (by protocol), cells primed 5 h with Pam3CSK4 first;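 further: robust z of the log signal after scaling to non-targeting control siRNA wells of the plate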
How it was run: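 Cells (RAW264.7, 1×10^4 per well) were transfected with siRNA at 100 nM and cultured 48h at 37 degrees C. Pam3CSK4 was added for 5 hours; LipidA transfection followed for 24 hour. IL-1a was then measured by HTRF.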

Sequence	z-score
GGUCCAUUCGGUACAAAAATT against Cfap20dc	inactive: -1.23
GGGAAGGAAUAUGAUGGGCTT against Sik3	inactive: -0.704
GGAACAGGCACAGAAAAUUTT against Abca12	inactive: -1.68
GGGAUACGGUCCACACUAUTT against Arl1	inactive: -0.674
GGUCAUCGGGAGGUUUGAATT against Nfkbil1	inactive: -0.0141
GGGAGAGACCCAAAAAGGGTT against Sh3pxd2a	inactive: -0.672
GGUAUUGGUUAAGUAUCACTT against Sumo3	inactive: -0.377
GGAAUUUUCUGAGAUUCGGTT against Il20	inactive: -0.655
GCCACUUCACAGCAAGCUATT against Cdk2ap1	active: 3.27
GGAGCAAGAUGAAGAAGAGTT against Ticam2	active: -2.26
GCCCUUGUUACAGAUUCUCTT against Vmn1r179	inactive: -0.614
CGAGCAUCUGUUAUGUACATT against Olfr19	inactive: 1.31
GGAGAUGCACAAAAGAAUATT against Slc35d1	inactive: 0.697
GGAUCAUUUCAAAACACACTT against Kcnh1	inactive: -0.0204
GGGUAUUUUACCACUACUUTT against Psg23	inactive: 0.32
CCCGAGAACAUCUUGUACGTT against Rps6ka4	active: 2.69
GGAUUUAUAGACAAGUUCUTT against Gapt	inactive: 1.26
GGAACUGAGGUUUUUAAAGTT against Tnks	inactive: -0.621
GCUAACAGCAUCCUUUUUGTT against Vmn1r50	inactive: -0.843
GGAGUAGAUCCAAAUGCACTT against Klhl4	inactive: -0.436
GGCCGAGUAGCUGAUGAAATT against Dhx35	inactive: -1.52
CGACAUGCCUAUCUACAUGTT against Epha2	inactive: -0.127

Some values from the list:
Entry of GGCCGAGUAGCUGAUGAAATT against Dhx35 under z-score: inactive: -1.52
Entry of GGAGAUGCACAAAAGAAUATT against Slc35d1 under z-score: inactive: 0.697
Entry of GGUAUUGGUUAAGUAUCACTT against Sumo3 under z-score: inactive: -0.377
Entry of GCUAACAGCAUCCUUUUUGTT against Vmn1r50 under z-score: inactive: -0.843
Entry of GGAACAGGCACAGAAAAUUTT against Abca12 under z-score: inactive: -1.68

No new results follow: an excerpt of the list.
Sequence	z-score
GGGAAGGAAUAUGAUGGGCTT against Sik3	inactive: -0.704
GGAACAGGCACAGAAAAUUTT against Abca12	inactive: -1.68

Further entries:

Sequence	z-score
GCACCAGUGAUAUUUUUACTT against Tas2r110	inactive: -1.26
GCGGACUACUAUGCUAAAGTT against Tgfb1	inactive: 1.08
GGAAGAUGUGAAAUUGCUUTT against Dars2	active: 2.23
CCUAUAUCAACAUUAGAGATT against Atp13a4	inactive: -0.207
GGUGGAUCCAGACCAAGUCTT against Hdhd5	inactive: 0.186
CCACAGAAAUAUUUCUGUGTT against Olfr292	inactive: -0.769
CCCACAUGUUGUCUGUAUUTT against Opn3	inactive: -1.17
GGAUGAUGAUGAGGAAGGGTT against Cd2bp2	inactive: 0.263
GGAAAUCAGAAGAAGAACATT against Hars	active: 2.67
GCUACCACAUUUAAACCUUTT against Mrps14	inactive: 0.378
GGGAAGAAGAAAAAGAUGATT against Peak1	inactive: -0.506
GGGACUAACCUACUUAAUGTT against Metrnl	inactive: 1.22
GAACUCUCUCUUCAUCUGGTT against Cd300ld3	active: 2.18
GGUGAUGUUUGUCAACAACTT against Slc14a2	inactive: 0.373
GGGAAGCUACUCUUUGUCUTT against Hexb	inactive: 0.311
GCAUAUUAGACACAAGAUATT against Clec4a2	inactive: 0.465
UAUCACAGACAUGAAAGAATT against Lst1	inactive: 0.105
GGCUCAAACGAACAUAUCGTT against Cenpo	inactive: -1.29
CCACAUUGGUACUAGUCAATT against Fam120b	inactive: -0.63
GGUCAGGAUGAAGAAAACATT against Nedd4l	inactive: -0.4
GGCAGAAUAUACUUGCCCUTT against Uevld	inactive: -0.156
GGUUUUGGUGUUCUAUACCTT against Fam160b1	inactive: 0.489

Sequence	z-score
GGGAGAUGGGUUUGUGUAATT against Izumo4	inactive: -0.0288
GGAAACAACCCAAAGAAUCTT against Slc12a8	inactive: -0.343
GCCUGUUCUCAAGACUGACTT against Sema4a	active: 2.06
GCAGGCUAUGUUCUGGAAUTT against Zfp212	active: 2.34
GGGUGGAGAAAAAAUGUACTT against Trappc13	inactive: -0.756
GCCUACGCUCUAUCUAGCUTT against Washc3	inactive: -0.363
CGUUGUAUAACAAACCAAUTT against Muc6	inactive: -0.947
GGUGAAAGUCAACUUUGACTT against Scn5a	inactive: -1.2
GCCAAUACAGACCACCUGGTT against Rln3	inactive: -1.67
GGUGCUAUACGAAUACUUGTT against Stxbp5l	inactive: -0.0835
CCAUGUGCGAUGUCACCAUTT against Zbtb39	inactive: -1.46
GGCCCUUCAAGUGUGAUCUTT against Zfp319	inactive: -0.135
GGGAUAAGCUUUACGAGCGTT against Purb	inactive: -0.775
GGCACCAUCUCCAUAAAAATT against Foxa3	inactive: -0.858
CCUGUCAGGGAUGGAUUUUTT against Bhlhe40	inactive: -0.23
GGAAUUUAAAUUAUCCCUGTT against Krtap4-2	inactive: -0.127
GCUUACCCUCUCCUAAAUUTT against Wdr27	inactive: -1.21
GGCCAUGAAGAAGAUGUACTT against Stard10	inactive: -1.06
GGAGAGAAAGAAACCUAUUTT against Fmn2	inactive: 0.567
GGCAGAAGGGUAUAACUGUTT against Tbc1d24	inactive: 0.549
GGAAGUGUCUUUCAAGCCCTT against 1700029J07Rik	inactive: 1.88
GGCAGUCAACAAAGAAGACTT against Metap1d	inactive: -0.711

Sequence	z-score
CCUUAUCCUGGGAAAAUCATT against Olfr266	inactive: 0.132
GCAGCAUGCCUAAAUUUGGTT against Fyb	inactive: -0.31
GGAAGAGGUAAAUGACAACTT against Slco6b1	inactive: 0.153
GCUAAAUACAGGAGAAAACTT against Rhox10	inactive: -0.149
GGCAACAUGAAGACUUUGUTT against Snx5	inactive: -1.04
GGGUGUCAUACUGUCCCAUTT against Olfr616	inactive: -0.324
GGUAAUUCUCCAAACCUCATT against Mfsd4a	inactive: -0.484
GCCGAUGAAGACCUUAGUCTT against Iqcd	inactive: -0.86
CCAGAUGUGUCGUAACAUATT against Clec4e	inactive: -1.38
CCCAGAGGUUCCCGUCAAUTT against Hmgb3	inactive: -0.21
GGAACUCUGUUCUAUUCCUTT against Chek2	inactive: 0.578
GGAUAUCACCUACCUUCGATT against Dusp15	inactive: -0.775
GGCUCUACCACAAGAAGGUTT against Iscu	inactive: 0.0947
UGCUGGUAGACCUAGUAGCTT against Olfr1137	active: -2.1
GGGUUACUUCAACUCAUGCTT against Dcaf5	inactive: -0.275
GGCAGUCUACUUUACACGGTT against Prdm1	inactive: 0.294
GCGGUUCCAAGAUUGUUGUTT against Armc8	inactive: 0.109
GGCAUGUUACAUUUAUCAUTT against Cdkal1	inactive: 0.226
GGGACAAGUGUUGUUUGACTT against Epb41l2	inactive: 1.31
GGUACAACAGACUAUGCAATT against Snai1	inactive: 0.886
GGAACACAGAGUUAACUUATT against Ifi35	inactive: 0.509
GGAAGUGUGGACGAAUAAATT against Prelid3a	inactive: 0.691

Sequence	z-score
GCCUCAUGAAUGACCACACTT against Klk1b21	inactive: 1.53
GGAUGUGCCUCGGUUGGAUTT against Gulo	inactive: 0.663
GGUGAACUGGUCUACAACATT against Muc2	inactive: 0.34
GGAGCACAAAGACAUUUUUTT against Lrrn1	inactive: 0.781
CCUCCUGUUAAUCAAACUGTT against Prss58	inactive: -0.0258
GGCAAAGACACCCAAAAAUTT against Hcfc1	inactive: -1.25
GGAUUUACCAGAGGAAAAUTT against Otub2	inactive: 0.228
GGUCAGAGCUCUGGACAAATT against Hsd3b1	active: 4.24
GCAGAAAGGCUGCUUCGAUTT against Tnfaip8l3	inactive: -0.635
GGUCUACGAGUUUAUUGCUTT against Phc1	inactive: -0.536
GGACUACCACAGCCUCUUCTT against Pxn	inactive: 0.173
GGGAACUGAAAAAUUUAGATT against Lrrd1	inactive: -0.00741
GGAUUGUCCACAUGGAACUTT against Ccl27a	inactive: -0.112
GCAAUUGUCAUUAGUUUUGTT against Nxpe2	inactive: 1.79
GGAACUGGACUUAUUCCACTT against Wnt5b	inactive: 0.652
GGCUGUUUUCCUGUGUAAGTT against Ppt1	inactive: -0.826
GGUAAAAAUGGAUUAGUCGTT against Cyp2j5	inactive: 0.159
GCUUAAGCAGUGAUAAUAATT against B230317F23Rik	inactive: -1.65
